Among the data in paper PMC9120517 are binding values, retold here.

Chains of the proteins cited; added tags and fusions are not shown.
UniProt P04350: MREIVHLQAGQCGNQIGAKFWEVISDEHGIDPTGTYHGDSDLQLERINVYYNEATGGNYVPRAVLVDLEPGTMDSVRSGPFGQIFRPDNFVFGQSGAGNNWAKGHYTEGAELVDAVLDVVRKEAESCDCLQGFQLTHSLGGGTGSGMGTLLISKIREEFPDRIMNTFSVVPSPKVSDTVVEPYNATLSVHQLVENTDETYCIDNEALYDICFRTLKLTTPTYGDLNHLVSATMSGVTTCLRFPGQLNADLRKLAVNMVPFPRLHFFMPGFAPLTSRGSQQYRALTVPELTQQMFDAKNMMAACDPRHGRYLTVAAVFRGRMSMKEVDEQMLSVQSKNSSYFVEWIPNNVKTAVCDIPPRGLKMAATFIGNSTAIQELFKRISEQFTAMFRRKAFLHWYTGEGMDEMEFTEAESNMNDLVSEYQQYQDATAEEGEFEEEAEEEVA
UniProt P35579: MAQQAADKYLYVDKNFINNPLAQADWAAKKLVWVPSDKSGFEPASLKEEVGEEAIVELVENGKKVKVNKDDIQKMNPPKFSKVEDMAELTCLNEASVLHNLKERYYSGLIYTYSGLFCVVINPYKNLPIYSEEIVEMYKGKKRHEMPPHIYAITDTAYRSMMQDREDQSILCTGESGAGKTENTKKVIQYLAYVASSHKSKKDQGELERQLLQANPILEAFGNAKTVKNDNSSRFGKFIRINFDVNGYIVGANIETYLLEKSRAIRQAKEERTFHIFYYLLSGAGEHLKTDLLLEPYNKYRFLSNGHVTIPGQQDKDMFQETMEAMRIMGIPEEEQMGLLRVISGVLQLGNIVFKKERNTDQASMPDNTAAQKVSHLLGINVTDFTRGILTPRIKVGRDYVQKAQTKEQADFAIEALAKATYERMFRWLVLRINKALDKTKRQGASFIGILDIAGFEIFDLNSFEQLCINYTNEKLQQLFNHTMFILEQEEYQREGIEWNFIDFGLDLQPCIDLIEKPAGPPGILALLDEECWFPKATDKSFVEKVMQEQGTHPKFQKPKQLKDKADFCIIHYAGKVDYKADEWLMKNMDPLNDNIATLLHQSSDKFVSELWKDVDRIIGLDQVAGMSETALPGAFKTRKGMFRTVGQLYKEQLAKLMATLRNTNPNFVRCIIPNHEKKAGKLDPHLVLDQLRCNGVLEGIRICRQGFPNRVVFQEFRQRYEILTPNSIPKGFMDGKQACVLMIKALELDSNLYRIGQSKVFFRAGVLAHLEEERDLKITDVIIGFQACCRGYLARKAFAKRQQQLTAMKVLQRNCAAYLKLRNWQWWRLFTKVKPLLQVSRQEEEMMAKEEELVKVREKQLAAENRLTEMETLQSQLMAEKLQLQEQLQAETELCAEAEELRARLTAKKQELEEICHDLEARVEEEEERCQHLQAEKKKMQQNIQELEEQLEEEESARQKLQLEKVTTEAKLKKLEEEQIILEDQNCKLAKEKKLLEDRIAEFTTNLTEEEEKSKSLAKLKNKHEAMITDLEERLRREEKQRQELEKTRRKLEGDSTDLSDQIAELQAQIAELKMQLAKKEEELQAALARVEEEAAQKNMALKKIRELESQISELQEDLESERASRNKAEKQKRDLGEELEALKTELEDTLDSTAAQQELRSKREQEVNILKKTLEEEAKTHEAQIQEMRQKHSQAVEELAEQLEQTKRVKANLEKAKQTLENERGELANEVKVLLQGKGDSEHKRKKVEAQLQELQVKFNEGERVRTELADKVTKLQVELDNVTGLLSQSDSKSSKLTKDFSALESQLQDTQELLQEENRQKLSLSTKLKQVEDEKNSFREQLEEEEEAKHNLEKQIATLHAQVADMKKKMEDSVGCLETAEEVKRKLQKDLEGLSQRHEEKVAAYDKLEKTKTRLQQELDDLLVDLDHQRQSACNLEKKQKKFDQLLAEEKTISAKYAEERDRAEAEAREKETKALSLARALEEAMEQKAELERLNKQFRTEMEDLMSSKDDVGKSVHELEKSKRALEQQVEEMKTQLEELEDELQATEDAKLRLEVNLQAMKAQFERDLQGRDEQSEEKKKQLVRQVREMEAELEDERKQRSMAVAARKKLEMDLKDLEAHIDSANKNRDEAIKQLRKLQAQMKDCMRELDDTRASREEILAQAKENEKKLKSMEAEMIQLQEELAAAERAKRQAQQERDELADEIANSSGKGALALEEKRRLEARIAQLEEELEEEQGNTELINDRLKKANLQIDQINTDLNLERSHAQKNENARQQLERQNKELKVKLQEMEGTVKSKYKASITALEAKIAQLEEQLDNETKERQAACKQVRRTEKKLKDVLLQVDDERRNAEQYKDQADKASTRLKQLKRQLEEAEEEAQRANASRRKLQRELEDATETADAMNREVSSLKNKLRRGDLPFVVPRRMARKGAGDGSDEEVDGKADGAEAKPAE

This assay addresses Human tubulin beta class IVa (TUBB4A) (human (endogenous in DU145)) (UniProt P04350). The assay can be described thus: affinity purification with mass spectrometry; DU145 lysate immunoprecipitated with TUBB4A antibody (ab222822, 1:200); Coomassie-stained gel bands excised, trypsin digested, LC-MS/MS.

No constants are given. Whether binding was seen depends on the method and setting. Binding seen in cells or lysates may run through a third protein. A yes stands for co-enrichment or nearness to the bait. Other partners may have been found.

As for “MYH9 (myosin heavy chain 9) (from UniProt P35579 1-1960)”, the binding entry was “binds”.
